From patent publication US10124076B2, “Imaging agents and methods of use thereof” (Huntington Medical Research Institutes, priority 2007, dated 2018)

Assay: Hyperpolarized 13C imaging at 1.5 T of syringes, concentration titration against 4.25 M 1-13C acetate phantom

With CCC(=O)OCCO [^13C hydroxyethyl propionate, hydroxyethyl propionate] the signal enhancement (0.64 mM reagent equivalent to 4.25 M 13C reference phantom, 1.5 T) was “over 6,000 times”, the “lowest detectable concentration of hyperpolarized reagent” value (1.5 T system, FIESTA pulse sequence (Example 1 text)) was 0.0001 µM and the “lowest detectable concentration of hyperpolarized reagent” value (1.5 T, 3 ml syringes, surface coil (FIG. 5 legend)) was 100 µM.
